Results reported in PubChem BioAssay AID1508600 (Functional Genomics Laboratory (NCATS/FGL), 2020).
Among all 53,000 sequences or so, about 3,700 (7%) were called active.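 How the source made its calls: active means gene knockdowns whose robust z-score for IL-1 alpha signal is at least 2 or at most -2, so actives lie on both sides; inactive means the rest.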 The list shows a part of the results.

Assay: Components of the Cytosolic LPS Sensing Pathway: Gene Identification via Genome-wide siRNA Screen;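 further: robust z of the log signal after scaling to non-targeting control siRNA wells of the plate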
Conditions: RAW264.7 macrophages, IL-1a HTRF, actives lie on both sides, screened at 100 nM (by protocol), cells primed 5 h with Pam3CSK4 first
How it was run: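 RAW264.7; siRNA 100 nM final, RNAiMAX, 48h 37 degrees C; Pam3CSK4 5 h; LipidA + TransIT-TKO 24 h; IL-1a HTRF; CellTiter-Glo viability; robust z vs negative-control median.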

Row | Sequence | z-score
1 | GGUUCUCACCACUGUAGACTT against Slc7a14 | inactive: -0.576
2 | CCCUGGGUGUACAAGUCCUTT against Slc25a41 | inactive: -0.084
3 | GGCUAAUGAACCACUUUUUTT against Elobl | inactive: -0.49
4 | GCUGUGAUCAGGACGAGAATT against Stx2 | inactive: 0.187
5 | CGAUUCCAUUCUUAACAUATT against Crlf3 | inactive: -0.353
6 | GCUGGAUCACCGUUAUAAUTT against Wdr17 | inactive: -0.429
7 | GGGUACCCUAGCUCUGUUATT against Timp2 | inactive: -1.35
8 | GGGAUUUGGUCAGCUAACCTT against Acp2 | inactive: -1.06
9 | GGAGAAAUAUGACAUGGAGTT against Tnni2 | inactive: 0.432
10 | GGGUAACAGUGGUGAACCUTT against Col1a1 | active: 2.08
11 | GCGGCAUUGUCUACAUCCATT against Emp3 | inactive: 0.209
12 | GCCGCAUUGAGUACAUGGUTT against Ap1m1 | inactive: 1.9
13 | GGAACUCCAUCUUCUGUAATT against Olfr1491 | inactive: -1.06
14 | GCCAACUUAUGUUGUACGCTT against Tmem101 | inactive: 1.29
15 | GGGCCUAGACCGUAUCUUCTT against Kcnj12 | inactive: 0.0859
16 | GGACAAACCUUGGAAGAUUTT against Ccdc166 | inactive: -0.24
17 | CCGAUUAAAAGAGUGUUUGTT against Nudt8 | inactive: 1.85
18 | GGGUAUGACCGGUAUUACATT against Atp5j2 | inactive: 0.213
19 | GGUCAAGACACAGUUUAACTT against Tgif2lx1 | inactive: 0.474
20 | GCUUAAGAGAUUCAAAUUGTT against Olfr1317 | inactive: 0.036
21 | GGCCAGUACGAAUGCUCCUTT against Dlk1 | inactive: -0.524
22 | GCCAAGAGGACUUACUCUCTT against Marchf3 | inactive: 1.85

Row | Sequence | z-score
23 | GGGAAACAGACUUUUUUUATT against Arid3a | inactive: 0.953
24 | GGAUGUUCAGCAAUCCCUGTT against Rnf121 | inactive: -0.851
25 | CCCAUUUAGACUAGUUUAATT against Hsf2 | inactive: 2
26 | GGGAAUGUCUGACUUCCAGTT against Gtf3c5 | inactive: 1.59
27 | GGCUUCUUCUUCCUUUUUATT against Sra1 | inactive: -0.848
28 | GGGCUUCAUAAUCACCUUCTT against Rad51c | inactive: -0.998
29 | GGCAUGGAAGGCUUUAAUUTT against Gad1 | inactive: -0.697
30 | GGAGGCUUAUCCUAAAAAGTT against 6330444E15Rik | inactive: -1.02
31 | GGAAGAAUGAAGAAGUAAUTT against Cacng3 | inactive: 1.35
32 | GGAGGAAGAAAUAAAUUACTT against Iyd | inactive: 0.642
33 | GCGGGACUCAAACAAAAGUTT against Trip4 | inactive: 0.295
34 | CCAUUUAAGUGUGUGUUAATT against Rbmx | inactive: 0.475
35 | GGAAUUUGCUACGAAUCUCTT against Ppfia3 | inactive: -0.722
36 | GGCCAUUAUUCGUGAGUUGTT against Armc10 | active: 2.11
37 | GCAAGUAUUAAGUAUGACGTT against Vps13c | inactive: 0.15
38 | GCAUUUGUGUAACCACAAATT against Pde4dip | inactive: -0.522
39 | GGAAAAAAGACAUAAGUCATT against Vmn2r37 | inactive: -1.47
40 | CCAUCAAUUGGAAAUCUUUTT against Tnn | inactive: -1.01
41 | GGUACUUUAAUGCUGAGGATT against Wdr74 | inactive: -1.62
42 | GGAAGUGAUCCUUAAAAGATT against Ebf1 | inactive: -0.207
43 | GGAAAUGUGUCCUUGACCATT against Timd2 | inactive: -0.128
44 | GGCACAUGAUCCUUAAUUUTT against Pfkfb3 | inactive: 0.0397

Row | Sequence | z-score
45 | GCUUCAUAACACAAACGGATT against Zfp184 | inactive: 0.295
46 | CCCUCAUUGUAACCUUAACTT against Olfr792 | active: -2.27
47 | GGAGAUCAGUCCUACAAAGTT against Ralbp1 | inactive: 1.44
48 | GGUGGUAUUCUGUGGACCATT against Mrpl48 | inactive: -0.819
49 | CGGCACCAGUUACAAAGUGTT against Cpa2 | inactive: -0.239
50 | GCAAACUGCCCUCUUUGUGTT against Olfr1024 | active: 2.54
51 | GGUGGUGUUUCUGAACCCATT against Capn5 | inactive: -0.882
52 | GGUGGAUGGAUCACUGAGUTT against B230325K18Rik | inactive: -0.347
53 | CCUUAUCCAAGAGUAGGGCTT against Xkr4 | inactive: 0.714
54 | GGACCUUGGCUUUAAGAUGTT against Matn1 | inactive: -0.261
55 | GCCUAAAUUCACAUGGCAGTT against Eef1akmt1 | inactive: 1.32
56 | GGUCUUCGCCACAUGGAAATT against Crkl | inactive: 0.436
57 | GGGACUUUAAAAAAGACUCTT against Olfr1366 | active: 2.1
58 | CCUUUAGCCCUCAAUAUUCTT against Macrod2 | inactive: 0.642
59 | CCGACUGUUAAAGUGGUGUTT against Arih1 | inactive: 0.608
60 | GGAAAUGCUACUGCUUGGATT against 1700030K09Rik | inactive: 1.2
61 | GCUGAUACACAGACAUACCTT against Erh | inactive: -0.356
62 | GGGACUAAUGUUUUGCCUATT against Krt16 | active: -2.62
63 | GCUGGAAACCCGUAUACUATT against Krt23 | active: 2.16
64 | GGCUGGGUAAAACCCAUCATT against Idh1 | inactive: -0.207
65 | GGUAGACAACUGGAUAAAUTT against Gpnmb | inactive: -0.445
66 | GAUCUGGUAUGUUUGUGACTT against Olfr1414 | inactive: -1.14

Row | Sequence | z-score
67 | GGGCAAGAAAUCAAGGUUUTT against Krtap3-2 | inactive: 0.249
68 | GGCUCUAACAGCUACAUGUTT against Hspb7 | active: -2.21
69 | CGAACUUGGUUUAAGCAAUTT against Gstcd | inactive: -0.453
70 | GGACAGUUGUCAUUGGCAUTT against Daglb | inactive: -1.21
71 | GGUACACUUUGUGCCUGGCTT against Iars2 | inactive: -0.615
72 | GGACGUGAGCUCCAUCAUUTT against Sypl2 | inactive: 1.32
73 | GGACAAUUGCCUUUUGACATT against Thbs3 | inactive: 0.146
74 | GAAUCAUGAUAGAAUGCAUTT against AI987944 | inactive: -0.135
75 | CGUCAAGCGAGGAAACUCUTT against Pifo | inactive: -1.54
76 | GGACCAAAAGGAAAAUCCATT against Kcnj6 | inactive: -1.05
77 | CCAGUCCUACUUAGCAAAGTT against Lrrc75a | inactive: -1.48
78 | CCAGUCAUCAUGCUACACGTT against Slc19a3 | inactive: 0.473
79 | CCUUGUCCUAUGUUAGGCATT against Ccdc85a | inactive: 0.401
80 | GGCUUUGAGCAUGUUUUCATT against Hspb7 | active: 7.14
81 | CCUAUUGAAUUGACCCUAATT against Muc20 | inactive: 0.236
82 | GAACCCAGAUCUGCACAACTT against Sox17 | inactive: 1.51
83 | GUUGGUAGAUUCAGUUUUCTT against Vmn1r89 | inactive: 1.88
84 | GGUCCUUAGGUGACCUCCUTT against Lrrc20 | inactive: -0.249
85 | GGAUAUCGUUGUUUCUGAGTT against Lmbr1 | inactive: -1
86 | GGGCAUAAAAUCAUUGCCUTT against Tigd4 | inactive: -1.43
87 | GCAAAACGAUGACUCGGAGTT against Lhx4 | inactive: 0.755
88 | GGUGGAGAUUGUUUGUAAATT against Lratd1 | inactive: 1.56

Laid out differently: entries from further up
Row,Sequence,z-score
70,GGACAGUUGUCAUUGGCAUTT against Daglb,inactive: -1.21
71,GGUACACUUUGUGCCUGGCTT against Iars2,inactive: -0.615
72,GGACGUGAGCUCCAUCAUUTT against Sypl2,inactive: 1.32
73,GGACAAUUGCCUUUUGACATT against Thbs3,inactive: 0.146
74,GAAUCAUGAUAGAAUGCAUTT against AI987944,inactive: -0.135

Additional entries follow:

Row | Sequence | z-score
89 | GCAAGUGCCUAGAGUCUCATT against Crat | inactive: -0.291
90 | GGAAGUCUCUUAGACUACCTT against Fbxo36 | inactive: 1.11
91 | GCAGCGAUGUACAAUCCAATT against Opn5 | inactive: 0.816
92 | GGUGAUUGAGUUGGAGAGGTT against Nkx3-1 | inactive: -0.743
93 | GCAUGAUCCAGCUUUCUAGTT against Bard1 | inactive: -1.24
94 | GCACGUAUACUAAAAUUGGTT against Rnf225 | inactive: -1.21
95 | GGUUCAGUCAGUCAGUAUCTT against Srst | inactive: -1.47
96 | GGAUGAAGAUACGAUUGAUTT against Sumo2 | inactive: -0.0166
97 | CGGGACAUUAGUCAUUAAATT against Pcdha5 | inactive: -0.78
98 | GGCGAUCUUUGGAAUUAGATT against Ing3 | inactive: 0.209
99 | GGAAAAAUAGCAUACCGAATT against Bphl | inactive: 0.172
100 | GGAAUCUGAAUUUUUGUGUTT against Commd1 | inactive: -0.576
101 | GCUUAGAAAUGUGAUCCAUTT against Rex2 | inactive: -0.388
102 | GCCGAAGAGAUCAACACCATT against Onecut3 | inactive: 1.92
103 | GGUCUACAUUGAUCCUUUUTT against Ephb4 | inactive: -1.22
104 | GGGUUAAAGCGGUUUACUUTT against Kcng3 | active: 2.72
105 | GCAUGACAUAUAGUACAAUTT against Teddm1b | inactive: -0.402
106 | GCUGAAAACUGCUUGCUCCTT against Onecut3 | inactive: 1.18
107 | CGUAUUCAACCUUCAUAGATT against Cabcoco1 | inactive: -0.145
